These are yes or no findings as the source states them, for the method shown.
Target: BBA03_(23–169), Borrelia burgdorferi outer surface lipoprotein BBA03 (Borrelia burgdorferi B31) (UniProt Q44849)
Assay: NMR 15N T1/T2 relaxation (rotational correlation time); 13C,15N-labeled BBA03 in 20 mM sodium phosphate, pH 6.8, 50 mM NaCl, 298 K; tau-c from average T1 and T2 of rigid regions, compared with MW/tau-c of reference globular proteins; both purified

Sequences of proteins named here, by UniProt entry; tags and fusion partners are left off. Residues count along the entry.
UniProt Q44849, residues 23-169: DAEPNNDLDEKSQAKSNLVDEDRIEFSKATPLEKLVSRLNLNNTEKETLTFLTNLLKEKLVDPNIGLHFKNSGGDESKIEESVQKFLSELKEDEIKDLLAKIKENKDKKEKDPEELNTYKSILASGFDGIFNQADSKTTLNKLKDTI

Substance: BBA03_(23–169), Borrelia burgdorferi outer surface lipoprotein BBA03 (from UniProt Q44849 23-169) (domain or fragment)
- binding: no binding (tested: 1.5 to 2 mM)

Reference: publication PMC7650648
